Literature values as cited in PMC4160570, “Effects of proarrhythmic drugs on relaxation time and beating pattern in rat engineered heart tissue” (Basic Research in Cardiology, 2014).

Experiments:
rat = details: in vivo; cited from earlier work
mouse = details: in vivo; cited from earlier work

COC(=O)C1=C(C)NC(C)=C(C(=O)OC)C1c1ccccc1[N+](=O)[O-] [Nifedipine]
LD50 (rat): 1.022 mg∙kg^-1 (rat, p. o.) 185 mg∙kg^-1 (mouse, i. p.) | LD50 (mouse): 1.022 mg∙kg^-1 (rat, p. o.) 185 mg∙kg^-1 (mouse, i. p.)
